Reference: patent EP0637237B1, “CALCIUM RECEPTOR-ACTIVE MOLECULES” (BRIGHAM AND WOMEN'S HOSPITAL, INC., priority 1993, dated 1994)
At least one structure is not confirmed: it was looked up by name or label, or the drawing left a doubt.

Biological target: T1, parathyroid cell Ca^2+ receptor (Bos taurus, UniProt P35384)
T1 sequence (P35384 20-1085): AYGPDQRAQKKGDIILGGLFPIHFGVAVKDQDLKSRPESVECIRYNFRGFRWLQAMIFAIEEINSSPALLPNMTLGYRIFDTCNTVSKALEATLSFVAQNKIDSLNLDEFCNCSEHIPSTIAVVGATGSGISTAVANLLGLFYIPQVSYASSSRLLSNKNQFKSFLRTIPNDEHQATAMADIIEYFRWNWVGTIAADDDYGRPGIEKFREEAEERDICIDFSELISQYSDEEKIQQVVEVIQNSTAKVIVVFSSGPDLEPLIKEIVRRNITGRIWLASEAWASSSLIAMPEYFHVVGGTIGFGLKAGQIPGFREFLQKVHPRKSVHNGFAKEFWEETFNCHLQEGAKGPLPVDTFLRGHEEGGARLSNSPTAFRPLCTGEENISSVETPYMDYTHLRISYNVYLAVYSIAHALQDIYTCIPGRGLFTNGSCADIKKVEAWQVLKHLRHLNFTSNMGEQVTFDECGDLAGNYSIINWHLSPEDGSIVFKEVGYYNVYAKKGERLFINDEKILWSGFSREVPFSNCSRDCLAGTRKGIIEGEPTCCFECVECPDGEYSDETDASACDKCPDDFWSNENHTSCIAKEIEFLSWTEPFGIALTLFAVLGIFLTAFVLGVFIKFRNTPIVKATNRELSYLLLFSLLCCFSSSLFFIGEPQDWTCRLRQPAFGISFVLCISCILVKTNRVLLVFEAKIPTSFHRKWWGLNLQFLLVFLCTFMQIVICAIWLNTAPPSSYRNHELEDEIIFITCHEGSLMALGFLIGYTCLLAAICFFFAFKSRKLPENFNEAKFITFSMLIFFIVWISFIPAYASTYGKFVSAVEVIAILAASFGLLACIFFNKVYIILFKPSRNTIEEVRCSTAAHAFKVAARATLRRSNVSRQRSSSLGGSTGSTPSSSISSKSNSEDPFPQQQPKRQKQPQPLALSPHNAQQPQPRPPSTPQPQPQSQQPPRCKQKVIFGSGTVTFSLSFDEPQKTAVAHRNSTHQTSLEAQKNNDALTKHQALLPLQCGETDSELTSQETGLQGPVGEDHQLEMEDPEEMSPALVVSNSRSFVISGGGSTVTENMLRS
Assay type: cell-based, bovine
Conditions: tested at a concentration of 500 µM

## NC[C@H]1O[C@H](O[C@H]2[C@H](O)[C@@H](O[C@H]3O[C@H](CO)[C@@H](O)[C@H](N)[C@H]3O)[C@H](N)C[C@@H]2N)[C@H](O)[C@@H](O)[C@@H]1O [Kanamycin]
  effect on cytosolic Ca2+ transients: without effect
